The source of these data is patent publication US6174858A (Merck & Co., Inc., priority 1998, dated 2001).

This data set is described as follows: general procedure: Fmoc solid-phase peptide synthesis; Fmoc-Ser(t-Bu)-WANG resin loaded at 0.82 mmol/g; DCC and HOBt. To be noted: conjugation step, analytical HPLC (system A), acetate salt.

Turning to “des- Acetylvinblastine-40-(N-Acetyl-4-trans-L-Hyp-Ser-Ser Chg-Gln-Ser-Ser-Pro) ester”, the “final HPLC purity” value amounted to 98.9%.
